Measured values from the supplement of paper PMC4683952.
Structures can show the parent of a compound that is named as a salt. The list shows a part of the results. No stated cut-off is given here; in the data, active = 2.5 or more and inactive = the rest. Repeats in this data set agree poorly, so a single value says little.

Each compound was assayed on Lgr5 (MarsCy1-Lgr5-EGFP, U2OS) (assay: cell-surface Lgr5 expression (SCi1 fluorescence, background-subtracted) relative to WT control (fold of WT control); higher = more Lgr5 at the plasma membrane). Settings: U2OS MarsCy1-Lgr5-EGFP stable; treatment time: overnight; library: Prestwick; 20 µM.

| Compound | cell-surface Lgr5 expression |
| --- | --- |
| CC1O[C@H](O[C@]2(O[C@H]3CC[C@@]4(C)C(=CC[C@H]5[C@@H]6C[C@H]7[C@H]([C@H](C)[C@H]8CC[C@H](C)CN87)[C@@]6(C)CC[C@@H]54)C3)C[C@@H](O[C@@H]3OC(CO)[C@@H](O)[C@@H](O)C3O)[C@@H](O)C(CO)O2)C(O)[C@@H](O)[C@H]1O (stereo partly drawn) [Solanine alpha] | inactive: 1.73 |
| Cc1c(Nc2ncccc2C(=O)O)cccc1C(F)(F)F [Flunixin meglumine] | active: 3.44 |
| CC[C@H](c1ccc(O)cc1)[C@@H](CC)c1ccc(O)cc1 [Hexestrol] | inactive: 1.56 |
| C[C@H](CS)C(=O)N1CCC[C@H]1C(=O)O [Captopril] | inactive: 1.3 |
| CC1(C)O[C@@H]2C[C@H]3[C@@H]4C[C@H](F)C5=CC(=O)C=C[C@]5(C)[C@H]4[C@@H](O)C[C@]3(C)[C@]2(C(=O)CO)O1 [Flunisolide] | active: 3.92 |
| O=C(O)c1cccnc1 [Niacin] | inactive: 1.13 |
| CCCCc1oc2ccccc2c1C(=O)c1cc(I)c(OCCN(CC)CC)c(I)c1 [Amiodarone hydrochloride] | inactive: 1.07 |
| O=c1[nH]c(=O)n([C@H]2C[C@H](O)[C@@H](CO)O2)cc1I [Idoxuridine] | active: 2.69 |
| Cc1cccc(N(C)C(=S)Oc2ccc3ccccc3c2)c1 [Tolnaftate] | inactive: 1.45 |
| NNC(=O)c1ccncc1 [Isoniazid] | inactive: 0.205 |
| CC1(C)O[C@@H]2C[C@H]3[C@@H]4C[C@H](F)C5=CC(=O)CC[C@]5(C)[C@H]4[C@@H](O)C[C@]3(C)[C@]2(C(=O)CO)O1 [Flurandrenolide] | active: 3.47 |
| CCC[C@@H]1C[C@@H](C(=O)N[C@@H]([C@H]2O[C@H](SC)[C@H](O)[C@@H](O)[C@H]2O)[C@@H](C)O)N(C)C1 [Lincomycin hydrochloride] | inactive: 1.51 |
| CN1CCCN=C1/C=C/c1cccs1 [Pyrantel tartrate] | inactive: 1.85 |
| CC12CC3CC(C)(C1)CC(N)(C3)C2 [Memantine Hydrochloride] | inactive: 1.59 |
| C#C[C@]1(O)CC[C@H]2[C@@H]3CCC4=Cc5oncc5C[C@]4(C)[C@H]3CC[C@@]21C [Danazol] | inactive: 0.918 |
| O=C(Nc1ccc([N+](=O)[O-])cc1Cl)c1cc(Cl)ccc1O [Niclosamide] | inactive: 1.39 |
| CCOc1ccc(Cc2nccc3cc(OCC)c(OCC)cc23)cc1OCC [Ethaverine hydrochloride] | inactive: 1.72 |
| CC(C)NNC(=O)c1ccncc1 [Iproniazide phosphate] | inactive: 1.1 |
| CCN(CC)CCNC(=O)c1cc(Br)c(N)cc1OC [Bromopride] | inactive: 1.86 |
| OC(CCN1CCCCC1)(c1ccccc1)c1ccccc1 [Pridinol methanesulfonate salt] | inactive: 1.62 |
| C[N+](C)(C)CCOC(N)=O [Carbachol] | inactive: 1.71 |
| CC(C)(C)NC[C@H](O)COc1cccc2c1CCCC2=O [(-) -Levobunolol hydrochloride] | inactive: 1.5 |

Quoted at random: 2 records from the list.

| Compound | cell-surface Lgr5 expression |
| --- | --- |
| C#C[C@]1(O)CC[C@H]2[C@@H]3CCC4=Cc5oncc5C[C@]4(C)[C@H]3CC[C@@]21C [Danazol] | inactive: 0.918 |
| CCOc1ccc(Cc2nccc3cc(OCC)c(OCC)cc23)cc1OCC [Ethaverine hydrochloride] | inactive: 1.72 |

Carrying on.

| Compound | cell-surface Lgr5 expression |
| --- | --- |
| Nc1ncn(C2OC(CO)C(O)C2O)c(=O)n1 (centres undefined) [Azacytidine-5] | inactive: 2.22 |
| CCOC(=O)C1=C(C)NC(C)=C(C(=O)OC)C1c1cccc(Cl)c1Cl (centres undefined) [Felodipine] | inactive: 0.651 |
| C[C@H](CCC(=O)O)[C@H]1CC[C@H]2[C@@H]3C(=O)C[C@@H]4CC(=O)CC[C@]4(C)[C@H]3CC(=O)[C@]12C [Dehydrocholic acid] | inactive: 0.926 |
| O=C(O)CCC(=O)c1ccc(-c2ccccc2)cc1 [Fenbufen] | inactive: 1.84 |
| CN1CCN2c3ccccc3Cc3ccccc3C2C1 (centres undefined) [Mianserine hydrochloride] | inactive: 1.13 |
| N[C@@H](Cc1ccc(O)c(O)c1)C(=O)O [Levodopa] | inactive: 1.42 |
| CCC(C)(C)C(=O)O[C@H]1C[C@@H](C)C=C2C=C[C@H](C)[C@H](CC[C@@H]3C[C@@H](O)CC(=O)O3)[C@H]21 [Simvastatin] | active: 2.52 |
| CC(=O)Oc1ccc(C(c2ccc(OC(C)=O)cc2)c2ccccn2)cc1 [Bisacodyl] | inactive: 1.39 |
| CCCNC(C)(C)COC(=O)c1ccccc1 [Meprylcaine hydrochloride] | inactive: 1.15 |
| CC(NCCc1ccc(O)cc1)C(O)c1ccc(O)cc1 (centres undefined) [Ritodrine hydrochloride] | inactive: 2.06 |
| C[N+](C)(CCOc1ccccc1)Cc1ccccc1.O=C([O-])c1cc2ccccc2cc1O [Bephenium hydroxynaphthoate] | inactive: 1.88 |
| CCC1(C)CC(=O)NC1=O (centres undefined) [Ethosuximide] | inactive: 1.27 |
| Nc1ccc(/N=N/c2ccccc2)c(N)n1 [Phenazopyridine hydrochloride] | inactive: 1 |
| CN(C)CCOC(=O)C(c1ccccc1)C1(O)CCCC1 (centres undefined) [Cyclopentolate hydrochloride] | inactive: 1.31 |
| CC1=CC(=O)C2=C(C)CC[C@@H]3[C@H](OC(=O)[C@H]3C)[C@@H]12 [Leucomisine] | inactive: 1.49 |
| CCC(=O)O[C@]1(C(=O)SCF)[C@H](C)C[C@H]2[C@@H]3C[C@H](F)C4=CC(=O)C=C[C@]4(C)[C@@]3(F)[C@@H](O)C[C@@]21C [Fluticasone propionate] | inactive: 2.07 |
| C[N+]1(C)CCCC1C(=O)O (centres undefined) [Stachydrine hydrochloride] | active: 3.24 |
| OCCN1CCN(CC/C=C2/c3ccccc3Sc3ccc(Cl)cc32)CC1 [Zuclopenthixol hydrochloride] | inactive: 1.92 |
| O=C(O)c1ccccc1Nc1cccc(C(F)(F)F)c1 [Flufenamic acid] | inactive: 2.36 |
| CC[N+](C)(CC)CCC[n+]1c(-c2ccccc2)c2cc(N)ccc2c2ccc(N)cc21 [Propidium iodide] | active: 2.79 |
| O=C1O[C@H]([C@@H](O)CO)C(O)=C1O [Ascorbic acid] | inactive: 1.69 |
| COc1cc(N)c(Cl)cc1C(=O)NC1CCN(CCCOc2ccc(F)cc2)CC1OC (centres undefined) [Cisapride] | inactive: 0.703 |
